Laboratory results published in patent publication US11529390B2 (INSTITUT DE CARDIOLOGIE DE MONTREAL, priority 2015, dated 2022).

Experiment: Fmoc solid-phase peptide synthesis; rink amide resin
Details: whole synthesis, analytical RP-HPLC (Kinatex EVO C18); ESI-TOF MS

Sequence: YGWSGNMERIMKAQAYQTGKDISTNYY
- final HPLC purity: 95% purity or greater

Plain letter strings leave the end groups untold.
